The results in this text go back to PubChem BioAssay AID2685 (National Center for Advancing Translational Sciences (NCATS), 2010).

This test in a line: qHTS Assay for Lipid Storage Modulators in Drosophila S3 Cells.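 As to cell number change: cells counted by Cell Tracker Red CMTPX staining in the red channel.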 To be noted: BODIPY lipid droplet fluorescence, 18-24 h; for cell number change: measured here: cell count max response, cells fed with added oleic acid. In short, it runs like this: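 Laser-scanning cytometry quantifies lipid droplet accumulation (500–530 nm total intensity; droplet/cell object ratio) in oleic acid-fed (400 uM added) Drosophila S3 cells treated with a concentration series. 20 uM Triacsin C defined 100% inhibition.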

Setting [1] is: measured here: cell number channel AC50, cells fed with added oleic acid.
Where [2] appears, read: measured here: lipid fluorescence (Fed channel) AC50, cells fed with added oleic acid.

Some of the results follow. Shown are side measurements of this screen, not its main read-out; they come without a call. The list favours compounds with an active or inconclusive main result. Potencies come from curve fits of mixed quality, noted in brackets.

On to `COc1ccccc1NC(=O)c1c(N=Cc2ccccc2O)cnn1C`, for which the cell number change turned out to be 102%. Under setting [1], the concentration at half-maximal activity (AC50) was 23.1 µM [rising, partial curve, poor fit]. Further, the AC50 under setting [2] was 0.58 µM [rising, single point].
On to `O=C(CSc1nc2ccccc2c(=O)[nH]1)N1CCCCCC1`, for which the cell number change is -14.8%. The half-maximal activity concentration (AC50) under setting [2] is 18.4 µM [rising, partial curve].
Turning to `COc1ccc(NC(=O)c2cc(=O)c3ccccc3o2)cc1Cl`, the cell number change was 5.28%. Under setting [2], the half-maximal activity concentration (AC50) is 29.1 µM [rising, single point].
In the case of `Cc1n[nH]c(C)c1CCc1nc2c3ccccc3nc(SCC(N)=O)n2n1`, the cell number change amounted to 5.94%. The AC50 under setting [2] was 0.651 µM [rising, single point].
For `O=C(NCC1OCCCN1S(=O)(=O)c1cc(F)ccc1F)C(=O)NC1CCCC1` (stereo unspecified), the cell number change came to 2.64%.
As for `Nc1cc(Oc2ccc(Cl)cc2Cl)nc(N)n1`, the cell number change amounted to 16.1%. Moreover, the AC50 under setting [1] was 0.0461 µM [rising, full curve, poor fit]. The AC50 under setting [2] was 23.1 µM [rising, single point].
Turning to `O=C(c1cc2ccccc2oc1=O)N(Cc1ccc2c(c1)OCO2)Cc1ccco1`, the cell number change was -2.8%. Moreover, under setting [2], the half-maximal activity concentration (AC50) was 2.31 µM [rising, single point].
For `O=C(CC(=O)N/N=C/c1c(Cl)cccc1Cl)NCc1cccnc1`, the cell number change was -1.47%. Further, the half-maximal activity concentration (AC50) under setting [2] was 32.6 µM [falling, single point].
Regarding `O=C(C(c1ccccc1)c1ccccc1)N1CCOCC1`, the cell number change was determined as 1.48%.
As to `Cc1cc(=O)oc2cc(NC(=O)c3cccc(Br)c3)ccc12`, the cell number change stood at 18.8%. Further, the half-maximal activity concentration (AC50) under setting [2] was 6.51 µM [rising, single point].
Consider `O=C(C1CCCN(S(=O)(=O)c2ccccc2)C1)N1CCN(c2ccccc2)CC1` (stereo unspecified), for which the cell number change is -19.3%. Also, the concentration at half-maximal activity (AC50) under setting [2] is 29.1 µM [falling, single point].
Take `CCN(C(=O)CSc1ccc(S(=O)(=O)N2CCOCC2)cn1)c1ccccc1`: the cell number change is -14.1%. Further, under setting [2], the concentration at half-maximal activity (AC50) was 0.00461 µM [falling, full curve, poor fit].
Consider `Cc1ccc(S(=O)(=O)N2CCN(C(=O)CCC(=O)NCc3cccc(C(F)(F)F)c3)CC2)cc1`, for which the cell number change is -50%. The concentration at half-maximal activity (AC50) under setting [1] was 0.517 µM [falling, full curve].
In the case of `CC1=C(C(=O)OC2CCCCCCC2)C(c2cccc(O)c2)NC(=O)N1` (stereo unspecified), the cell number change is 5.35%. In addition, under setting [1], the half-maximal activity concentration (AC50) is 3.26 µM [rising, single point]. In addition, under setting [2], the concentration at half-maximal activity (AC50) is 0.082 µM [falling, full curve, poor fit].
Take `O=C(Nc1nc(-c2cccc3ccccc23)cs1)c1ccc2c(c1)S(=O)(=O)c1ccccc1C2=O`: the cell number change was 88.2%. For the same molecule, the concentration at half-maximal activity (AC50) under setting [1] was 29.1 µM [rising, single point].
As for `Clc1ccc(/C=N\Nc2ccccc2)cc1`, the cell number change was 19.1%. For the same molecule, under setting [2], the AC50 is 29.1 µM [rising, single point].
Consider `O=C(O)CN1CCN(Cc2ccccc2)C1=O`, for which the cell number change was -18.8%. In addition, under setting [1], the AC50 is 2.31 µM [falling, partial curve, poor fit]. In addition, the concentration at half-maximal activity (AC50) under setting [2] is 4.61 µM [falling, single point].
